From publication PMC2816717, “Active Fragments from Pro- and Antiapoptotic BCL-2 Proteins Have Distinct Membrane Behavior Reflecting Their Functional Divergence” (PLoS ONE, 2010)

Key:
[1] = Brewster Angle Microscopy of peptide-monolayer complexes, lipid mixture not singled out; assay type: physicochemical; details: BAM, calculated from reflectance values
[2] = Brewster Angle Microscopy of peptide-monolayer complexes; assay type: physicochemical; details: BAM, POPC/DOPE mixture, at πmax

| Sequence | difference in height between dark area of the holes and peripheral rims [1] | difference in height between rims and surrounding monolayer [1] | height of the condensed domains [2] |
| --- | --- | --- | --- |
| ELIRTIMGWTLDFLRERLLVWIQD [BAX-α6, second helix (α6) of the central hairpin of BAX] | 1.07±0.19 nm | 0.49±0.2 nm |  |
| NWGRVVALFYFASKLVLKALSTKVPELIR [BAX-α5M] |  |  | 1.99±0.24 nm |
| NWGVVKALFYFASVLRLKALSTKVPELIR [BAX-α5MS] |  |  | 1.04±0.13 nm |
| RDGVNWGRIVAFFSFGGALSVESVDKEMQVLVSR [BCLX-α5L, long version of helix α5 of BCL-xL] |  |  | 1.32±0.16 nm |
| WGRVVALFYFASKLVLKALSTK [BAX-α5S, short peptide of the first helix (α5) of the central hairpin of BAX] |  |  | 2.54±0.31 nm |
